Patent US7378416B2

Amino acid sequences for entries named in this document (tags omitted). Residues count along the entry.
UniProt P14174, 2-115 limits assumed: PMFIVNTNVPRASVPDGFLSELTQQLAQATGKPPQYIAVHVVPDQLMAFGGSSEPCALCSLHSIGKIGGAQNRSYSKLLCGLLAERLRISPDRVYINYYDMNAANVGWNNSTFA

Biological target: Human MIF protein (Homo sapiens, UniProt P14174)
Experiment: MIF tautomerase HPP assay adapted to the microtiter plate format
Details: read-out: inhibition of MIF tautomerase activity, half-maximal inhibition (IC50); substrate p-hydroxyphenylpyruvate (HPP) 200 μM, enzyme 18.3 nM, pH 6.5, OD 310 nm
Procedure: The natural substrates of MIF enzyme activity are not yet known with certainty. […] The assay used herein is such HPP assay adapted to the microtiter plate format: • Human MIF protein is purified according to Bernhagen et al. Biochemistry, 33:14144-14155, 1994. Dilutions of the enzyme are prepared in 50 mM sodium phosphate buffer, 1 mM EDTA, pH 6.5. • HPP is obtained from Aldrich. A stock solution of 60 mM HPP in ethanol is prepared and kept for maximally 4 hours on ice. […] Addition of substrate to start the reaction is performed with an Igel 96 pipetting station (OpalJena, Jena, Germany), which allows simultaneous addition of fluid to all 96 wells of the plates. • Optical density (OD) is determined using a SPECTRAmax 250 reader (Molecular Devices). The reader is operated with the SoftmaxPro 2.6.1 software. • Assay: Three wells of the microtiter plates are filled with buffer only, to allow for blanking. […]
The last step is performed using the 96-channel pipetting device. The plate is then immediately (i.e. within a few seconds) transferred manually to the SPECTRAmax 250 reader and the optical density is determined (310 nm).
From the data obtained, IC50 values are calculated using Excel™ and XLfit™ software.

COc1ccc(N2Cc3ccc(O)cc3OC2=O)cc1
IC50: 20 nM

Structures were worked out from names or drawings and are uncertain.
